The other results are listed elsewhere or left out. Further columns of the screen follow, without active or inactive calls. Most of these compounds were active or inconclusive in the main read-out, so they are no random draw. Potencies come from curve fits of mixed quality, noted in brackets.
Experiment: qHTS Assay for Lipid Storage Modulators in Drosophila S3 Cells;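 for cell number change: cells counted by Cell Tracker Red CMTPX staining in the red channel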
Details: BODIPY lipid droplet fluorescence, 18-24 h; for cell number change: measured here: cell count max response, cells fed with added oleic acid
Summary of the method: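 Drosophila S3 cells got compounds at several concentrations plus oleic acid (400 uM solution). Laser-scanning cytometry with 488 nm excitation read lipid droplets at 500-530 nm and cells at 575-640 nm. Percent activity was relative to 20 uM Triacsin C.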

[1] = measured here: cell number channel AC50, cells fed with added oleic acid
[2] = measured here: lipid fluorescence (Fed channel) AC50, cells fed with added oleic acid

Row | Structure (SMILES) | cell number change [%] | AC50 [1] | AC50 [2]
1 | CN(C)S(=O)(=O)c1ccc(N2CCCC2)c(C(=O)NCC2CCCCC2)c1 | -33.4 | 0.058 µM [falling, full curve] | 16.4 µM [falling, partial curve, poor fit]
2 | O=C(NCc1ccco1)c1ccc(Br)c(S(=O)(=O)N2CCCCC2)c1 | -12.4 | – | –
3 | Cc1ccc(S(=O)(=O)Cc2ccc(C(=O)NCCc3ccccc3)o2)cc1 | 24.8 | – | –
4 | Cc1ccc2nc(CSc3nnc(-c4ccncc4)n3C)cc(=O)n2c1 | -4.52 | – | 29.1 µM [falling, single point]
5 | CCC(C(=O)NCCC(C)C)N(Cc1ccccc1Cl)C(=O)c1snc(C(N)=O)c1N (stereo unspecified) | -56.7 | 8.2 µM [falling, partial curve, poor fit] | 29.1 µM [falling, single point]
6 | Cc1cc(OCC(O)CNC(C)c2ccccc2)ccc1C(C)C (stereo unspecified) | -49.3 | – | –
7 | O=C(Nc1cc([N+](=O)[O-])ccc1O)c1cccc(C(=O)Nc2cc([N+](=O)[O-])ccc2O)c1 | 28.1 | – | –
8 | O=C(CSc1nccc(=O)[nH]1)c1c[nH]c2ccccc12 | 17.3 | – | 9.2 µM [rising, partial curve]
9 | Nc1c(C(=O)NCc2ccccc2)c2nc3ccccc3nc2n1CCCN1CCOCC1 | -46.6 | 20.6 µM [falling, partial curve, poor fit] | 0.731 µM [rising, partial curve]
10 | CCC1(c2ccccc2)NC(=O)N(CC(=O)N(C)CC(=O)Nc2ccc(F)c(F)c2F)C1=O (stereo unspecified) | -27 | 4.61 µM [falling, full curve, poor fit] | 4.61 µM [falling, full curve, poor fit]
11 | C=CCc1c(C)[nH]c(=S)c(C#N)c1C | 37.4 | 0.731 µM [rising, full curve, poor fit] | 8.2 µM [rising, partial curve]
12 | Cc1ccc2c(CN3CCC(C)CC3)cc(=O)oc2c1C | -42.3 | 25.9 µM [falling, single point] | –
13 | Cc1c(C(=O)Nc2ccccc2)sc2nc(-c3ccccc3)cn12 | -65.7 | 29.1 µM [falling, single point] | –
14 | COc1ccc(CNC(=O)COC(=O)CCc2nc3ccccc3c(=O)[nH]2)cc1 | 39.9 | – | –
15 | O=C1CCCCC1Oc1ccc2ccc(=O)oc2c1 (stereo unspecified) | 14.8 | – | 5.8 µM [falling, single point]
16 | Cc1ccc(S(=O)(=O)N2CCOCC2)cc1NC(=O)CSc1ncccn1 | 23.7 | – | 0.411 µM [rising, single point]
17 | Cc1ccc(S(=O)(=O)N2CCC(C(=O)OC3CCOC3=O)CC2)cc1C (stereo unspecified) | 256 | 29.1 µM [rising, single point] | 18.4 µM [rising, single point]
18 | CCOC(=O)c1cc2c(nc1N)CC(C)(CC)OC2 (stereo unspecified) | 38.7 | 16.4 µM [rising, single point] | –
19 | O=C(Nc1cccc([N+](=O)[O-])c1)c1ccc(CN2CCOCC2)cc1 | – | 0.164 µM [rising, full curve, poor fit] | 6.51 µM [rising, single point]
20 | N#Cc1c(N)sc(=S)c2c1CCCC2 | 6.56 | – | –
21 | CC1CCC(NC(=O)C2CCC(CNS(=O)(=O)c3cccc4cccnc34)CC2)CC1 (stereo unspecified) | – | – | 6.51 µM [falling, single point]

Row | Structure (SMILES) | cell number change [%] | AC50 [1] | AC50 [2]
22 | Cc1ccc(OCCn2cnc3c2c(=O)n(C)c(=O)n3C)cc1 | 18 | – | –
23 | C/C(=N\NC(N)=S)C12CC3CC(CC(C3)C1)C2 | -22.5 | – | 3.26 µM [falling, full curve]
24 | O=S(=O)(Nc1cc(Cl)ccn1)c1ccc(Cl)cc1 | -24.1 | 0.731 µM [falling, full curve] | 0.231 µM [falling, full curve]
25 | CC1=NC(C)(C)Cc2c(C)cccc21 | -28.7 | – | –
26 | COc1ccc(CCNc2c([N+](=O)[O-])ncn2C)cc1OC | 11.2 | – | –
27 | CC(=O)c1cccc(NC(=O)NC2CCCCC2)c1 | -30.7 | 29.1 µM [falling, single point] | –
28 | CCN(CC)S(=O)(=O)c1ccc(C(=O)N(c2ccccc2)C2C=CS(=O)(=O)C2)cc1 (stereo unspecified) | -20.7 | – | 0.0231 µM [rising, full curve, poor fit]
29 | CC(=O)c1cccc(NC(=O)CCCSc2ccccc2)c1 | -9.52 | – | 3.26 µM [falling, partial curve]
30 | Cc1n[nH]c(C)c1CCC(=O)N/N=C/c1c[nH]c2ccccc12 | 6.79 | – | 0.13 µM [falling, full curve, poor fit]
31 | Cn1c(=O)c2c(nc(Oc3ccccn3)n2C)n(C)c1=O | -1.48 | – | –
32 | CC(C(=O)N1CCN(C2c3ccccc3-c3ccccc32)CC1)N1C(=O)c2ccccc2C1=O (stereo unspecified) | -19 | – | 5.17 µM [falling, partial curve]
33 | Cc1ccc(-c2nnc(N3CCOCC3)c3ccccc23)cc1S(=O)(=O)NCC1CCCO1 (stereo unspecified) | 0.768 | – | 0.92 µM [rising, full curve]
34 | CC(=O)c1cccc(N(C(=O)Cn2nnc3ccccc32)C(C(=O)NCc2ccccc2)c2ccccn2)c1 (stereo unspecified) | – | 6.51 µM [rising, single point] | 2.59 µM [rising, single point]
35 | COC(=O)c1ccc(Oc2ccc(C(F)(F)F)cn2)cc1 | -12.9 | 0.092 µM [falling, full curve] | 0.103 µM [falling, full curve, poor fit]
36 | Cc1ccccc1N(C(=O)c1snc(C(N)=O)c1N)C(C(=O)NC1CCCC1)c1ccco1 (stereo unspecified) | -5.65 | – | –
37 | CC(=O)C1=C(C)Nc2ncnn2C1c1cccc(OCc2ccccc2)c1 (stereo unspecified) | 3.02 | 0.92 µM [rising, full curve, poor fit] | –
38 | O=C(N/N=C/c1ccc(Cl)cc1Cl)Nc1ccccc1 | -42.4 | 29.1 µM [falling, single point] | –
39 | Cc1ccc(C)c2[nH]c(=O)c(CCNC(=O)c3ccc(S(=O)(=O)N4CCCC4)cc3)cc12 | – | – | 7.31 µM [falling, partial curve]
40 | Cc1ccc(NC(=O)C2CCCN2C(=O)c2cccs2)c(C)c1 (stereo unspecified) | -15.2 | – | –
41 | Cc1cc(C)nc(NC(=O)Nc2ccccc2C(F)(F)F)n1 | -3.09 | – | 13 µM [falling, partial curve]
42 | C/C(=N\Nc1cc(C)nc(-c2ccccc2O)n1)c1ccccc1O | 19.1 | – | 2.06 µM [rising, partial curve, poor fit]

Row | Structure (SMILES) | cell number change [%] | AC50 [1] | AC50 [2]
43 | CC1Cn2c(nnc2-c2cccc(Cl)c2)S1 (stereo unspecified) | 12.3 | – | 0.0651 µM [rising, full curve, poor fit]
44 | Cc1cc(NC(=O)c2nn(C)c(C)c2Br)no1 | -44 | 29.1 µM [falling, single point] | 16.4 µM [rising, partial curve, poor fit]
45 | OC(CNC1CCCCCC1)COc1cccc2ccccc12 (stereo unspecified) | -15.3 | – | 29.1 µM [falling, single point]
46 | O=C(COc1ccccc1)N1CCN(C(=O)c2cccs2)CC1 | -37 | 0.517 µM [falling, full curve] | –
47 | CN(C)CC(CCC(CN(C)C)C(=O)c1ccccc1)C(=O)c1ccccc1 (stereo unspecified) | -65.5 | 23.1 µM [falling, single point] | 16.4 µM [falling, single point]
48 | O=c1cc(CSc2nnc(-c3cccs3)n2Cc2ccccc2)nc2sc3ccccc3n12 | -34.8 | 1.84 µM [falling, full curve] | 6.51 µM [falling, partial curve]
49 | CCOc1ccc(NS(=O)(=O)c2ccc(NC(=O)c3ccccn3)cc2)cc1 | 2.29 | – | 29.1 µM [rising, single point]
50 | COc1ccc(-n2c(C)cc(C(=O)Cn3c(NCCO)nc4ccccc43)c2C)cc1 | -0.256 | – | –
51 | Cc1nn(-c2ccccc2)c2[nH]c(=O)cc(C(F)(F)F)c12 | -36.2 | 0.366 µM [falling, full curve] | –
52 | COc1ccc(-n2c(SCC(=O)Nc3nccs3)nc3c(c2=O)SCC3)cc1 | – | – | 6.51 µM [rising, single point]
53 | COc1ccc(-c2cc(C)no2)cc1S(=O)(=O)NCCCN1CCN(c2ccccc2)CC1 | 5.13 | – | 6.51 µM [rising, single point]
54 | Nc1nonc1-c1noc(CCCOc2ccc(Cl)cc2Cl)n1 | -14.6 | – | –
55 | COc1ccc(-c2nnc(-c3cccnc3)o2)cc1 | 38.1 | 18.4 µM [rising, single point] | –
56 | O=C(COc1ccc2ccccc2c1)Nc1nc2ccccc2[nH]1 | -16.4 | – | 29.1 µM [rising, single point]
57 | c1ccc(Cn2c(-c3cncs3)nc3ccccc32)cc1 | – | 0.291 µM [rising, full curve] | –
58 | COc1ccc(CNC(=O)c2csc3c2CCCC3)cc1 | 13.3 | – | –
59 | O=C(COc1cccc(Cl)c1Cl)Nc1ccc2c(c1)CCC2 | -43.9 | 20.6 µM [falling, partial curve, poor fit] | 20.6 µM [falling, partial curve, poor fit]
60 | Cc1ccc2nc(/C=C/c3cccc(F)c3)ccc2c1 | 0.833 | – | 0.82 µM [rising, full curve]
61 | O=C(CSc1nnc(C2CC2)n1Cc1ccccc1)Nc1cccnc1Cl | – | – | 6.51 µM [rising, partial curve]
62 | O=C(CN1CCCC(O)C1)N1c2ccccc2Sc2ccc(C(F)(F)F)cc21 (stereo unspecified) | -30.8 | 11.6 µM [falling, single point] | –

Filtered by structure: the entries above with a nitro group on carbon.
Row | Structure (SMILES) | cell number change [%] | AC50 [1] | AC50 [2]
7 | O=C(Nc1cc([N+](=O)[O-])ccc1O)c1cccc(C(=O)Nc2cc([N+](=O)[O-])ccc2O)c1 | 28.1 | – | –
19 | O=C(Nc1cccc([N+](=O)[O-])c1)c1ccc(CN2CCOCC2)cc1 | – | 0.164 µM [rising, full curve, poor fit] | 6.51 µM [rising, single point]
26 | COc1ccc(CCNc2c([N+](=O)[O-])ncn2C)cc1OC | 11.2 | – | –

— PubChem BioAssay AID2685 (National Center for Advancing Translational Sciences (NCATS), 2010)
